PubChem BioAssay AID1053208, Peter MacCallum Cancer Centre – 2014
In all, the deposit lists about 17,000 reagents; shown is a random part of them. 788 of them (4.7%) were called active. 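Calls rest on z-score classes alone; an extra cut-off of viability at most 70% of control was not applied to them.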

Assay: 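Find knock-downs that sensitise mouse osteosarcoma cells to doxorubicin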 (primary screen)
System: mouse osteosarcoma cells, early-passage culture from an engineered mouse model of fibroblastic bone tumour
Reagent: siRNA pool against mouse genes, 40 nM
Duration: about 120 h (48 h before drug, then 72 h with drug)
Conditions: doxorubicin 100 nM for 72 h, roughly 30-40% inhibitory dose
Read-out: 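Viability read as ATP luminescence after 72 h of 100 nM doxorubicin or none, duplicate wells averaged, scaled to non-targeting siRNA, then expressed as robust z-scores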
Reading the numbers: viability z-score with doxorubicin and doxorubicin viability vs non-targeting: higher = more viable cells under doxorubicin; viability z-score without drug: higher = more viable cells with knock-down alone; z-score of drug to no-drug ratio: higher = less drug sensitisation by knock-down
Rule for the call: 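a pool counts as active when its viability z-score with doxorubicin is -2 or below and its z-score without drug lies between -2 and 2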

no.	gene knocked down	combined z-score class	viability z-score with doxorubicin	viability z-score without drug	z-score of drug to no-drug ratio	doxorubicin viability vs non-targeting	Call
1	Zfp454 (zinc finger protein 454)	no change with or without drug	0.22	0.67	-0.11	0.96	inactive
2	Pogk (pogo transposable element with KRAB domain)	no change with or without drug	0.9	0.34	0.79	1.02	inactive
3	Pex26 (peroxisomal biogenesis factor 26)	no change with or without drug	0.34	0.67	0	0.97	inactive
4	Slc22a8	no change with or without drug	0.67	1.18	0	1	inactive
5	Vmn1r189 (vomeronasal 1 receptor 189)	high cell count with doxorubicin only	2.02	0.51	1.8	1.12	inactive
6	Ints2 (integrator complex subunit 2)	no change with or without drug	-0.45	0.17	-0.45	0.9	inactive
7	Gpr162 (G protein-coupled receptor 162)	no change with or without drug	-1.12	0.17	-1.12	0.84	inactive
8	Ddx17 (DEAD box helicase 17)	no change with or without drug	1.69	1.52	0.79	1.09	inactive
9	Chd8 (chromodomain helicase DNA binding protein 8)	no change with or without drug	0.45	-0.51	1.01	0.98	inactive
10	Nppc (natriuretic peptide type C)	no change with or without drug	1.35	0.67	1.01	1.06	inactive
11	4932442K08RIK	low cell count without drug only	0	-3.2	2.92	0.94	inactive
12	Sntg2 (syntrophin, gamma 2)	no change with or without drug	-0.22	0.17	-0.22	0.92	inactive
13	Ier5 (immediate early response 5)	no change with or without drug	-1.12	-0.84	-0.56	0.84	inactive
14	Pla2g1b (phospholipase A2, group IB, pancreas)	no change with or without drug	-1.12	0.67	-1.46	0.84	inactive
15	Pgm2 (phosphoglucomutase 2)	no change with or without drug	-1.35	-0.34	-1.12	0.82	inactive
16	Ift122 (intraflagellar transport 122)	no change with or without drug	-0.9	-0.51	-0.56	0.86	inactive
17	Slc23a1	no change with or without drug	-0.67	-0.84	0	0.88	inactive
18	Ribc1 (RIB43A domain with coiled-coils 1)	no change with or without drug	-0.22	0.84	-0.67	0.92	inactive
19	Erich3 (glutamate rich 3)	high cell count without drug only	1.46	2.53	-0.11	1.07	inactive
20	Rax (retina and anterior neural fold homeobox)	high cell count with and without drug	2.36	2.53	0.79	1.15	inactive
21	Asb10 (ankyrin repeat and SOCS box-containing 10)	no change with or without drug	1.12	0.51	0.9	1.04	inactive
22	Fsd1l (fibronectin type III and SPRY domain containing 1-like)	no change with or without drug	0.22	1.52	-0.67	0.96	inactive
23	Chrng (cholinergic receptor, nicotinic, gamma polypeptide)	no change with or without drug	-0.11	-0.17	0.11	0.93	inactive
24	Ifi35 (interferon-induced protein 35)	low cell count without drug only	-1.8	-3.54	0.79	0.78	inactive
25	AY074887 (cDNA sequence AY074887)	no change with or without drug	1.57	0.17	1.69	1.08	inactive
26	Smg6 (SMG6 nonsense mediated mRNA decay factor)	no change with or without drug	-0.45	-0.17	-0.22	0.9	inactive
27	Parp3 (poly (ADP-ribose) polymerase family, member 3)	no change with or without drug	1.12	0.51	0.9	1.04	inactive
28	Hspa2 (heat shock protein family A (Hsp70) member 2)	no change with or without drug	-1.12	-0.67	-0.67	0.84	inactive
29	Rasgrp4 (RAS guanyl releasing protein 4)	no change with or without drug	0.45	1.18	-0.22	0.98	inactive
30	Dhx9 (DExH-box helicase 9)	no change with or without drug	1.12	0.67	0.79	1.04	inactive
31	Sirt2 (sirtuin 2)	no change with or without drug	1.24	0.84	0.79	1.05	inactive
32	U2surp (U2 snRNP-associated SURP domain containing)	no change with or without drug	1.12	0.17	1.12	1.04	inactive
33	Mast4	no change with or without drug	1.24	0.17	1.24	1.05	inactive
34	Vmn1r26 (vomeronasal 1 receptor 26)	no change with or without drug	0.79	0.34	0.67	1.01	inactive

Laid out differently: results already given
Ints2 (integrator complex subunit 2)
- combined z-score class: no change with or without drug
- viability z-score with doxorubicin: -0.45
- viability z-score without drug: 0.17
- z-score of drug to no-drug ratio: -0.45
- doxorubicin viability vs non-targeting: 0.9
- Call: inactive

Gpr162 (G protein-coupled receptor 162)
- combined z-score class: no change with or without drug
- viability z-score with doxorubicin: -1.12
- viability z-score without drug: 0.17
- z-score of drug to no-drug ratio: -1.12
- doxorubicin viability vs non-targeting: 0.84
- Call: inactive

Ddx17 (DEAD box helicase 17)
- combined z-score class: no change with or without drug
- viability z-score with doxorubicin: 1.69
- viability z-score without drug: 1.52
- z-score of drug to no-drug ratio: 0.79
- doxorubicin viability vs non-targeting: 1.09
- Call: inactive

Chd8 (chromodomain helicase DNA binding protein 8)
- combined z-score class: no change with or without drug
- viability z-score with doxorubicin: 0.45
- viability z-score without drug: -0.51
- z-score of drug to no-drug ratio: 1.01
- doxorubicin viability vs non-targeting: 0.98
- Call: inactive

Nppc (natriuretic peptide type C)
- combined z-score class: no change with or without drug
- viability z-score with doxorubicin: 1.35
- viability z-score without drug: 0.67
- z-score of drug to no-drug ratio: 1.01
- doxorubicin viability vs non-targeting: 1.06
- Call: inactive
